Test results: PMC10543749
These are yes or no findings as the source states them, for the method shown. In cells and extracts the contact can be indirect. Some entries that bind do so weakly or less than the wild type.

Protein sequences, listed by entry. Tags and fused reporters are not part of them.
UniProt O42202: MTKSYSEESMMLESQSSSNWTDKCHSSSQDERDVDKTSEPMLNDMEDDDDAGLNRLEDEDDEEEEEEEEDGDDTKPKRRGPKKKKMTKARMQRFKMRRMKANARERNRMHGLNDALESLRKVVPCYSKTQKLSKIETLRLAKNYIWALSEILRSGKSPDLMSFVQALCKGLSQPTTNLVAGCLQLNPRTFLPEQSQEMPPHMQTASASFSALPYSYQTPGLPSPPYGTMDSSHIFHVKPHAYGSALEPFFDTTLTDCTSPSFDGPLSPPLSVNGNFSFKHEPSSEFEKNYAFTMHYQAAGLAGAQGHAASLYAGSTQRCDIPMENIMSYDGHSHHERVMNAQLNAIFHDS

Key:
[1] = biological target: GST-tagged zebrafish Pin1 (zebrafish); assay: pull-down; recombinant GST-zebrafish Pin1 immobilized on Glutathione Sepharose 4B beads, incubated with HEK 293T lysates overexpressing HA-Nrd or Nrd mutants, 4°C, 3 h; blot with anti-HA; only the target purified
[2] = biological target: FLAG-tagged zebrafish Pin1 (zebrafish); assay: co-IP; HEK 293T cells co-transfected with FLAG-zPin1 and HA-NeuroD; lysates (50 mM Hepes pH 7.4, 10% glycerol, 1% Triton X-100, 100 mM NaCl, 0.5 mM MgCl2, protease and phosphatase inhibitors) incubated with FLAG-M2 beads 1.5 h at 4°C; blot with anti-HA

- binding [1]: binds
- binding [2]: binds
Substance: HA-tagged Nrd (NeuroD) (from UniProt O42202 1-350)
